From patent US20090118316A1, “Methods for Augmenting Bone” (PFZER INC., priority 2004, published 2009)
At least one compound was matched to its structure with a doubt left.

Legend:
[1] = test system: murine mesenchymal stem cells; experiment: Calcium deposition in murine MSC; format: cell-based, mouse; conditions: murine MSCs, OS media, day 21, 1 μM dexamethasone or increasing doses of PF—Y; μg per culture or per μg DNA (FIG. 3)
Experimental: (§1) Calcium Assay. Calcium deposited by the cells was measured using a diagnostic kit (Sigma #587A). Briefly, cells were rinsed twice with DPBS and hydrolyzed in 0.5 N HCl rotating overnight at 4°. Cells were then scraped and cellular debris was pelleted. Supernatants were used to measure calcium levels following manufacturer's protocol. The absorbance at 570 nm was determined and compared to calcium standards. Calcium levels were corrected for the DNA content in each well.
(§2) Murine mesenchymal stem cells isolated from femurs and tibiae of C57BI/6 mice were cultured in alpha-MEM containing 10% fetal bovine serum (FBS) and plated in six well dishes at a density of […]. The day after plating, the media were removed and replaced with media alone, in media with OS, or in OS media containing either 1 μM of dexamethasone or increasing doses of PF—Y for 21 days. “OS” medium” contains 50 μM ascorbic acid and 10 mM β-glycerophosphate. Media were refreshed every 3 days. The amount of alkaline phosphatase was measured on day 7 and day 21. The amounts of secreted calcium were determined only on day 21. The VonKossa stain was done after staining day 21 samples for alkaline phosphatase.

[2] = test system: murine mesenchymal stem cells; experiment: Alkaline phosphatase activity in murine MSC; format: cell-based, mouse; conditions: murine MSCs, OS media, 1 μM dexamethasone or increasing doses of PF—Y; units per culture or per μg DNA (FIG. 2)
Experimental: Quantitative Alkaline Phosphatase Measurement. For quantitative alkaline phosphatase measurements, cells were washed twice with Dulbecco's phosphate buffered saline (DPBS) followed by incubation with substrate buffer (50 mM glycine, 1 mM magnesium chloride, pH 10.5) containing 1.3 mg/ml p-nitrophenol phosphate. The levels of alkaline phosphatase activity were determined by measuring the absorbance at 405 nm and compared to p-nitrophenol standards. The level of alkaline phosphatase activity was corrected for the amount of DNA in each sample.
as §2

[3] = test system: human mesenchymal stem cells; experiment: Calcium deposition in human MSC; format: cell-based; conditions: human MSCs, compared to OS media alone; PF—Y especially the two lower doses (FIG. 5)
Experimental: as §1
Human mesenchymal stem cells were cultured in DMEM-high glucose containing 10% FBS and 10 mM l-glutamine and plated in six well dishes at a density of 3×10^4 cells/well. The day after plating, these cultures were treated and analyzed as in Example 2.

Question: Which calcium deposition [1] does the source give for C[C@@H]1C[C@H]2[C@@H]3CCC4=CC(=O)C=C[C@]4(C)[C@@]3(F)[C@@H](O)C[C@]2(C)[C@@]1(O)C(=O)CO [dexamethasone, reference compound] here?
Answer: Its calcium deposition is “increased”.

Question: And the alkaline phosphatase activity [2]?
Answer: Its alkaline phosphatase activity is “stimulation”.

Question: And the calcium deposition [3]?
Answer: Its calcium deposition is “increased”.
